For one molecule, binding results are on record in paper PMC3197142.

This test concerns the target T1, GST-Matrin-3 (human) (UniProt P43243).
T1 sequence: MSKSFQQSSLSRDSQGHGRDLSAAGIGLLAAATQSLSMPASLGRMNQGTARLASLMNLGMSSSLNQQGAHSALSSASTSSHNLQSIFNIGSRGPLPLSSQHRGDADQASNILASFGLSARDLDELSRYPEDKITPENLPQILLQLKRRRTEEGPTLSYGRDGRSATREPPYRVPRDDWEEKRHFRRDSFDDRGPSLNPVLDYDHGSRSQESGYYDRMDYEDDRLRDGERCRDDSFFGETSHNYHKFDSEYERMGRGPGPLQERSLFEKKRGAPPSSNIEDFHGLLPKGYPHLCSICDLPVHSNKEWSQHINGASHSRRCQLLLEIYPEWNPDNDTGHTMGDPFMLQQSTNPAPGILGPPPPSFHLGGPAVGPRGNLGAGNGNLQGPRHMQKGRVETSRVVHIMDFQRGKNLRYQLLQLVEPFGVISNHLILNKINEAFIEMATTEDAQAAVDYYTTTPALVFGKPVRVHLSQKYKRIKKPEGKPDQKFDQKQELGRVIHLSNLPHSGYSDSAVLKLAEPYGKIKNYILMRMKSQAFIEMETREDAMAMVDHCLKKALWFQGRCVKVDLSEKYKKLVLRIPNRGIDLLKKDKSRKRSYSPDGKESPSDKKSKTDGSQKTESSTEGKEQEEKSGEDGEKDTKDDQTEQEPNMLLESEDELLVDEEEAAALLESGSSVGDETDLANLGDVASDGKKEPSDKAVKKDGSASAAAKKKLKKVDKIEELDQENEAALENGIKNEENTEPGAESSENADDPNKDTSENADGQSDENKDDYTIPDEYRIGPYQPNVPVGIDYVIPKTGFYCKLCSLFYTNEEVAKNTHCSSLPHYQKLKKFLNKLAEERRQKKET
Put plainly: pull-down; purified GST-Matrin-3 (50 ng) incubated with Ba/F3 nuclear extracts (10 µg) in Interaction Buffer (20 mM Tris pH 8.0, 137 mM NaCl, 1.5 mM MgCl2, 1 mM EGTA, 0.1% Triton X-100, 10% glycerol), 1.5 h at 4°C; captured on Glutathione Sepharose 4B; immunoblot with anti-p68 or anti-CTCF Ab; only the target purified. A general note: A western blot detects proteins with antibodies after separation by electrophoresis.

Results are given in words; binding and its absence hold for the method and conditions named. Binding seen in cells or lysates may run through a third protein. Some entries that bind do so weakly or less than the wild type. Sequences can lack the tags named with a protein.

B1: CCCTC-binding factor (endogenous, Ba/F3 nuclear extract) (protein, UniProt Q61164 1-736)
chain: MEGEAVEAIVEESETFIKGKERKTYQRRREGGQEEDACHLPQNQTDGGEVVQDVNSSVQMVMMEQLDPTLLQMKTEVMEGTVAPEAEAAVDDTQIITLQVVNMEEQPINIGELQLVQVPVPVTVPVATTSVEELQGAYENEVSKEGLAESEPMICHTLPLPEGFQVVKVGANGEVETLEQGELPPQEDSSWQKDPDYQPPAKKTKKTKKSKLRYTEEGKDVDVSVYDFEEEQQEGLLSEVNAEKVVGNMKPPKPTKIKKKGVKKTFQCELCSYTCPRRSNLDRHMKSHTDERPHKCHLCGRAFRTVTLLRNHLNTHTGTRPHKCPDCDMAFVTSGELVRHRRYKHTHEKPFKCSMCDYASVEVSKLKRHIRSHTGERPFQCSLCSYASRDTYKLKRHMRTHSGEKPYECYICHARFTQSGTMKMHILQKHTENVAKFHCPHCDTVIARKSDLGVHLRKQHSYIEQGKKCRYCDAVFHERYALIQHQKSHKNEKRFKCDQCDYACRQERHMIMHKRTHTGEKPYACSHCDKTFRQKQLLDMHFKRYHDPNFVPAAFVCSKCGKTFTRRNTMARHADNCAGPDGVEGENGGETKKSKRGRKRKMRSKKEDSSDSEENAEPDLDDNEEEEEPAVEIEPEPEPQPQPPPPPQPVAPAPPPAKKRRGRPPGRTNQPKQNQPTAIIQVEDQNTGAIENIIVEVKKEPDAEPAEGEEEEAQAATTDAPNGDLTPEMILSMMDR
In the case of B1, the binding entry is on record as “binds”.
